We go through 1 substance from PMC12592519.

By UniProt entry, the sequences of proteins in these tests, tags left out.
UniProt P35579: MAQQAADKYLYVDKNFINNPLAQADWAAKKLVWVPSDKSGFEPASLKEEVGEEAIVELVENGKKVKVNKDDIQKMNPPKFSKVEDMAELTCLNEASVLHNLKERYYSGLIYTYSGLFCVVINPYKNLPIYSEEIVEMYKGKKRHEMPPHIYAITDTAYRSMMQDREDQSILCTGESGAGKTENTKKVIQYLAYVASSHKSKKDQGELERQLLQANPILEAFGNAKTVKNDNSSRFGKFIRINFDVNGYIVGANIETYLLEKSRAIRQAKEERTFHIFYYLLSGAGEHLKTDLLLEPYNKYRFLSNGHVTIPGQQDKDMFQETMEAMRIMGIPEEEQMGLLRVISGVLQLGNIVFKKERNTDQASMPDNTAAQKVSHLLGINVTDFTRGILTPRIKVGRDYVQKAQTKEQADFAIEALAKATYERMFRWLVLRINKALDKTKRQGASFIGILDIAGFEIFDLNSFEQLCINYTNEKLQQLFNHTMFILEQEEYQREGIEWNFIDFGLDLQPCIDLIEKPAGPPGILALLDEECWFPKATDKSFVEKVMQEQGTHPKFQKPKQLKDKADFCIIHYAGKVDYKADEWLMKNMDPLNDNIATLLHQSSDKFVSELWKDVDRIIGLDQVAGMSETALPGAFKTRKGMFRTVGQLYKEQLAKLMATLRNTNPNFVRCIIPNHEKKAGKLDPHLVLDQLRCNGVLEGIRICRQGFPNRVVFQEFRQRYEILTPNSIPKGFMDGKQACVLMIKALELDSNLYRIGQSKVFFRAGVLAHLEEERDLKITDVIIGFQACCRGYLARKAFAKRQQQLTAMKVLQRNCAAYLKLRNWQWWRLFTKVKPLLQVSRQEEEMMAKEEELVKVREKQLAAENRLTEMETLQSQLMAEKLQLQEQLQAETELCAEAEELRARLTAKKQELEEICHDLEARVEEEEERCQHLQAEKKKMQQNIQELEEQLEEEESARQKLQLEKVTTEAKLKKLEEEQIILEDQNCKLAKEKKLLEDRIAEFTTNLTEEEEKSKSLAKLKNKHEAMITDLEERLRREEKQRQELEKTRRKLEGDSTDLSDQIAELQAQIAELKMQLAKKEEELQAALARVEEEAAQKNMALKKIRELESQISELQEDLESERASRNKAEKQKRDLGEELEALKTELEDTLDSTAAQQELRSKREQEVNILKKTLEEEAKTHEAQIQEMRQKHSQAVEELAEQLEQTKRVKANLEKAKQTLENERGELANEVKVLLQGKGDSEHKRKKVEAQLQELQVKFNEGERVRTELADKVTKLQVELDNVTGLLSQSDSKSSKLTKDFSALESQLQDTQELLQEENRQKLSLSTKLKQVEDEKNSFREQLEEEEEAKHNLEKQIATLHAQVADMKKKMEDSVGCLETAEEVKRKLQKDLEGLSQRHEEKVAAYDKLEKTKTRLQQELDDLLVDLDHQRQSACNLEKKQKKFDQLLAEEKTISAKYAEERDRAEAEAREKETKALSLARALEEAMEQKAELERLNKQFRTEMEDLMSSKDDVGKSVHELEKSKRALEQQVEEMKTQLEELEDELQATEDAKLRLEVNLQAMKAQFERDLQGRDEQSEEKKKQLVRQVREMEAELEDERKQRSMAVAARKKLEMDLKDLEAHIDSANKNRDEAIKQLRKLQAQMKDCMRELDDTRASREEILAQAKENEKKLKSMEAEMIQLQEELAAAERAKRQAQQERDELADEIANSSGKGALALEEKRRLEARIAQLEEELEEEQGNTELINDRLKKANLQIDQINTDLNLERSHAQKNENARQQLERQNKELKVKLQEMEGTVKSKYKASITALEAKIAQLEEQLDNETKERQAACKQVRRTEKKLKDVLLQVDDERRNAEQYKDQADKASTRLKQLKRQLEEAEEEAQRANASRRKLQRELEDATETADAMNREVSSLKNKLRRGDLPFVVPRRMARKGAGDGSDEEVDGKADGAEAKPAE

The target of this assay is T1, Flag-USP17LA (mouse) (UniProt Q61068).
T1 sequence: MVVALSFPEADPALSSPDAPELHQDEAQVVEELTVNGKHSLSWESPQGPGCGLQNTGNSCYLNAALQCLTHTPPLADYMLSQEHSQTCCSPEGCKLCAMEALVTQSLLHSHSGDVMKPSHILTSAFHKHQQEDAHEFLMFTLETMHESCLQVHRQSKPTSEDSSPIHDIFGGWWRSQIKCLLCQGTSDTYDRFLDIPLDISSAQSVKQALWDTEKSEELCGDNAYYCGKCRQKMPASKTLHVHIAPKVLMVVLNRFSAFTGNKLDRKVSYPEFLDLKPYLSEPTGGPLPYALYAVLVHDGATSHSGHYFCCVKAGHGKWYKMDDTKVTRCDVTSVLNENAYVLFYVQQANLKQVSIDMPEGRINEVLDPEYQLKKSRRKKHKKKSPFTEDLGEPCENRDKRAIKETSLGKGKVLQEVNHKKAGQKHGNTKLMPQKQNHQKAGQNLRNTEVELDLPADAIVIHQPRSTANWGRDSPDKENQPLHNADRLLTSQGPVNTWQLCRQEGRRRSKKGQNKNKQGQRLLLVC
The experiment in a line: affinity purification with mass spectrometry; Flag-USP17LA from transfected HEK293T cells; NP-40 lysis buffer; anti-Flag M2 magnetic beads 2-4 h at 4 °C; elution with 3x FLAG peptide; silver staining, semiquantitative mass spectrometry; hits with a USP17LA-to-vector ratio above 2 or found only with USP17LA.

Results are given in words; binding and its absence hold for the method and conditions named. Binding seen in cells or lysates may run through a third protein. A yes stands for co-enrichment or nearness to the bait. Other partners may have been found. Tags and fused reporters may be left off the sequences shown.

On to MYH9 (from UniProt P35579 1-1960), for which the binding result is listed as “binds”.
